Source: PubChem BioAssay AID493246 (Drosophila RNAi Screening Center, 2011)
The screen tested about 21,000 reagents; shown is a random part of those that have a named target and a result. Of all reagents, 429 (2%) are marked active. 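Values are raw and not normalised between plates; calls rest on per-plate z-scores that were not deposited.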 The numbers tell different reagents against one gene apart. Names joined by + are all predicted targets of the reagent. Not given: the amount of reagent, the time to read-out.

Test: 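Identify essential fly genes by loss of cell viability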 (primary screen)
Cell system: Drosophila Kc and S2R+ cells
Reagent: long dsRNA against Drosophila genes
Detection: 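Cell number per well after knock-down, printed as raw plate values; calls were based on per-plate z-scores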
Reading the numbers: Kc cell number and S2R+ cell number: higher = more cells remaining
Active means: 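Counted as a hit if cell number falls by a z-score of at least 3 within its plate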

target,dsRNA no.,"Kc cell number, rep 1","Kc cell number, rep 2","S2R+ cell number, rep 1","S2R+ cell number, rep 2",call
beat-Ia,1,1.77e6,1.76e6,1.36e6,1.53e6,inactive
CG14367,1,1.23e6,1.34e6,1.14e6,1.24e6,inactive
Aps,1,1.31e6,1.40e6,1.13e6,1.27e6,inactive
CG17267,1,1.16e6,1.24e6,1.01e6,1.11e6,inactive
CG16798,1,1.60e6,1.68e6,1.21e6,3.09e5,inactive
na,1,1.79e6,1.76e6,1.06e6,1.21e6,inactive
mon2,1,1.54e6,1.57e6,1.11e6,1.22e6,inactive
CG15412,1,1.61e6,1.59e6,1.24e6,1.37e6,inactive
Mlc1,1,1.48e6,1.51e6,9.00e5,9.94e5,inactive
Deaf1,1,1.34e6,1.41e6,9.87e5,1.14e6,inactive
Polr2I,1,1.60e6,1.64e6,9.34e5,1.07e6,inactive
CG3999,1,1.51e6,1.46e6,1.30e6,1.39e6,inactive
Ttc7,1,1.32e6,1.36e6,1.14e6,1.23e6,inactive
Lst,1,1.88e6,1.95e6,1.25e6,1.34e6,inactive
4E-T,1,4.87e5,,7.84e5,,inactive
4E-T,2,1.47e6,1.57e6,1.05e6,1.23e6,inactive
Tom20,1,1.55e6,1.58e6,1.21e6,1.22e6,inactive
CG9886,1,1.25e6,1.30e6,9.86e5,9.29e5,inactive
ph-p,1,1.66e6,1.73e6,1.05e6,1.17e6,inactive
CG33178,1,1.78e6,1.73e6,1.23e6,1.22e6,inactive
Gr89a,1,1.38e6,1.36e6,9.66e5,1.12e6,inactive
l(2)37Cd,1,1.39e6,1.43e6,1.25e6,1.27e6,inactive
CG4836,1,1.51e6,1.50e6,1.08e6,1.18e6,inactive

Continued; the last 8 above are carried over.
target,dsRNA no.,"Kc cell number, rep 1","Kc cell number, rep 2","S2R+ cell number, rep 1","S2R+ cell number, rep 2",call
4E-T,2,1.47e6,1.57e6,1.05e6,1.23e6,inactive
Tom20,1,1.55e6,1.58e6,1.21e6,1.22e6,inactive
CG9886,1,1.25e6,1.30e6,9.86e5,9.29e5,inactive
ph-p,1,1.66e6,1.73e6,1.05e6,1.17e6,inactive
CG33178,1,1.78e6,1.73e6,1.23e6,1.22e6,inactive
Gr89a,1,1.38e6,1.36e6,9.66e5,1.12e6,inactive
l(2)37Cd,1,1.39e6,1.43e6,1.25e6,1.27e6,inactive
CG4836,1,1.51e6,1.50e6,1.08e6,1.18e6,inactive
Blm,1,1.75e6,1.88e6,1.26e6,1.32e6,inactive
CG8187,1,1.38e6,1.41e6,1.04e6,1.08e6,inactive
toy,1,5.68e5,,8.94e5,,inactive
CG1105,1,1.71e6,1.87e6,1.50e6,1.53e6,inactive
Tsp42Ek,1,1.43e6,1.53e6,1.24e6,1.34e6,inactive
ClC-c,1,1.51e6,1.59e6,1.31e6,1.38e6,inactive
Lint-O,1,1.66e6,1.62e6,1.10e6,1.20e6,inactive
CG13151,1,1.47e6,1.55e6,1.22e6,1.38e6,inactive
Vha36-1,1,1.34e6,1.37e6,1.06e6,1.14e6,inactive
shrb,1,5.33e5,7.01e5,5.20e5,5.27e5,active
Hmr,1,1.55e6,1.50e6,1.02e6,1.10e6,inactive
CG14568,1,1.50e6,1.94e6,1.21e6,1.36e6,inactive
Cyp12b2,1,1.69e6,1.61e6,1.31e6,1.54e6,inactive
bchs,1,1.45e6,1.30e6,1.12e6,1.25e6,inactive
EMC2B + EMC2A,1,1.45e6,1.49e6,1.20e6,1.35e6,inactive
E23,1,1.07e6,7.85e5,5.69e5,6.93e5,active
E23,2,1.46e6,1.41e6,1.14e6,1.30e6,inactive
CG6847,1,1.27e6,1.42e6,1.03e6,1.14e6,inactive
CG6847,2,1.52e6,1.54e6,1.14e6,1.23e6,inactive
Sps1,1,1.37e6,1.39e6,1.18e6,1.21e6,inactive
CG32017,1,1.14e6,1.29e6,1.03e6,1.09e6,inactive
CG9312,1,1.53e6,1.56e6,1.30e6,1.31e6,inactive
Brd7-9,1,1.45e6,1.50e6,6.01e5,8.68e5,inactive
Cpr49Ag,1,1.51e6,1.57e6,1.26e6,1.31e6,inactive
CG4293,1,5.14e5,,8.25e5,,inactive
Nop56,1,1.44e6,1.53e6,1.03e6,1.09e6,inactive
AhcyL2,1,1.37e6,1.35e6,1.12e6,1.21e6,inactive
CG9782,1,1.20e6,1.40e6,1.05e6,1.17e6,inactive
CG9782,2,1.57e6,1.57e6,1.10e6,1.18e6,inactive
CG42699,1,5.42e5,,8.83e5,,inactive
CG42699,2,1.56e6,1.49e6,1.08e6,1.17e6,inactive
Est-Q,1,1.47e6,1.56e6,1.21e6,1.27e6,inactive
Obp50e,1,1.65e6,1.59e6,1.36e6,1.42e6,inactive
Wdr24,1,5.23e5,,7.28e5,,inactive
Or65a,1,1.46e6,1.38e6,1.09e6,1.26e6,inactive
CG13747,1,1.48e6,1.52e6,1.21e6,1.33e6,inactive
